Reference: PubChem BioAssay (NCATS)
This list was built around the results that the source calls inconclusive (neither active nor inactive); the mix of calls is not that of the screen. For part of these data: Potencies beside an inconclusive call are fits to weak or partial responses and may not hold up. Activity calls are given as the source filed them. Calls follow the shape of the dose curve; as a rule, active = well fitted curve in the direction sought with a large enough effect; inconclusive = small, poorly fitted or top-dose-only effect, or another doubt; inactive = no such curve, though single readings can be large; an effect the other way counts as inactive or inconclusive.

Columns and labels:
[1] = Quantitative High-Throughput drug screen in 47 multiple myeloma cell lines against the NCATS MIPE library collection: NCIH929_DSMZ cell viability assay (AID 1918978); settings: NCI-H929 myeloma viability, CellTiter-Glo ATP, 48 h; viability, % of control: at 45.8 µM (top of the series); also: potency is read from the fitted curve at half-maximal effect; nearly all actives have a fitted effect of over 35% in size
Outline: (§1)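 Cells were exposed to library compounds for 48 hours, after which ATP was measured by CellTiter-Glo. Signal was taken as median relative luminescence units.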

[2] = Quantitative High-Throughput drug screen in 47 multiple myeloma cell lines against the NCATS MIPE library collection: OCIMY1_PLB cell viability assay (AID 1918979); also: potency is read from the fitted curve at half-maximal effect; nearly all actives have a fitted effect of over 35% in size
Outline: as §1

[3] = Quantitative High-Throughput drug screen in 47 multiple myeloma cell lines against the NCATS MIPE library collection: LP1_DSMZ cell viability assay (AID 1918982); also: potency is read from the fitted curve at half-maximal effect; nearly all actives have a fitted effect of over 35% in size
Outline: as §1

[4] = Quantitative High-Throughput drug screen in 47 multiple myeloma cell lines against the NCATS MIPE library collection: L363_DSMZ cell viability assay (AID 1918984); settings: L363 myeloma viability, CellTiter-Glo ATP luminescence, 48 h; viability (% of control): at 45.8 µM (top of the series); also: potency is read from the fitted curve at half-maximal effect; nearly all actives have a fitted effect of over 40% in size
Outline: as §1

[5] = Quantitative High-Throughput drug screen in 47 multiple myeloma cell lines against the NCATS MIPE library collection: OCIMY7_PLB cell viability assay (AID 1918987); settings: OCI-MY7 myeloma viability, CellTiter-Glo ATP, 48 h; viability (% of DMSO): at 45.8 µM (top of the series) unless noted; also: potency is read from the fitted curve at half-maximal effect; nearly all actives have a fitted effect of over 65% in size
Outline: as §1

[6] = Quantitative High-Throughput drug screen in 47 multiple myeloma cell lines against the NCATS MIPE library collection: SKMM1_PLB cell viability assay (AID 1919863); settings: SKMM1 myeloma viability, CellTiter-Glo ATP, 48 h; viability: hits give low values; also: nearly all actives have a fitted effect of over 35% in size; also: potency is read from the fitted curve at half-maximal effect
Outline: as §1

[7] = Quantitative High-Throughput drug screen in 47 multiple myeloma cell lines against the NCATS MIPE library collection: XG1_PLB cell viability assay (AID 1919866); also: nearly all actives have a fitted effect of over 35% in size; also: potency is read from the fitted curve at half-maximal effect
Outline: as §1

[8] = Quantitative High-Throughput drug screen in 47 multiple myeloma cell lines against the NCATS MIPE library collection: VP6_DJ cell viability assay (AID 1919867); settings: ATP luminescence, 48 h; viability (% of DMSO): at 45.8 µM (top of the series); also: nearly all actives have a fitted effect of over 40% in size; also: potency is read from the fitted curve at half-maximal effect;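 as to viability (% of DMSO): 100% = DMSO-only wells and 0% = wells with media alone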
Outline: as §1

[9] = Quantitative High-Throughput drug screen in 47 multiple myeloma cell lines against the NCATS MIPE library collection: XG6_PLB cell viability assay (AID 1919865); settings: XG6 myeloma viability, CellTiter-Glo ATP luminescence, 48 h; viability (% of control): at 45.8 µM (top of the series); also: nearly all actives have a fitted effect of over 40% in size; also: potency is read from the fitted curve at half-maximal effect;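 as to viability (% of control): 100% = DMSO-only wells and 0% = media-only wells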
Outline: as §1

[10] = Quantitative High-Throughput drug screen in 47 multiple myeloma cell lines against the NCATS MIPE library collection: KMS28PE_JCRB cell viability assay (AID 1918983)
Outline: as §1

[11] = Quantitative High-Throughput drug screen in 47 multiple myeloma cell lines against the NCATS MIPE library collection: OCIMY5_PLB cell viability assay (AID 1918988); settings: OCI-MY5 myeloma viability, ATP luminescence, 48 h; viability, % of control: at 45.8 µM (top of the series); also: potency is read from the fitted curve at half-maximal effect; nearly all actives have a fitted effect of over 65% in size
Outline: as §1

[12] = Quantitative High-Throughput drug screen in 47 multiple myeloma cell lines against the NCATS MIPE library collection: UTMC2_PLB cell viability assay (AID 1919868); settings: CellTiter-Glo ATP luminescence, 48 h; viability (% of DMSO control): at 45.8 µM (top of the series); also: nearly all actives have a fitted effect of over 55% in size; also: potency is read from the fitted curve at half-maximal effect;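 as to viability (% of DMSO control): 100% = DMSO-only wells and 0% = media-only wells without cells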
Outline: as §1

[13] = Quantitative High-Throughput drug screen in 47 multiple myeloma cell lines against the NCATS MIPE library collection: U266_ATCC cell viability assay (AID 1919864); also: nearly all actives have a fitted effect of over 35% in size; also: potency is read from the fitted curve at half-maximal effect;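 as to viability (% of DMSO control): 0% = media-only wells without cells and 100% = DMSO-only wells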
Outline: as §1

[14] = Quantitative High-Throughput drug screen in 47 multiple myeloma cell lines against the NCATS MIPE library collection: PE2_PLB cell viability assay (AID 1919869); settings: PE2_PLB myeloma cells viability, ATP luminescence, 48 h; viability (% of control): at 45.8 µM (top of the series)
Outline: as §1

[15] = Quantitative High-Throughput drug screen in 47 multiple myeloma cell lines against the NCATS MIPE library collection: MM1R_ATCC cell viability assay (AID 1918981)
Outline: as §1

[16] = Quantitative High-Throughput drug screen in 47 multiple myeloma cell lines against the NCATS MIPE library collection: OPM1_PLB cell viability assay (AID 1918989); settings: CellTiter-Glo, 48 h; viability (% of control): at 45.8 µM (top of the series); also: nearly all actives have a fitted effect of over 40% in size; also: potency is read from the fitted curve at half-maximal effect;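 as to viability (% of control): 100% = DMSO-only wells and 0% = media-only wells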
Outline: as §1

[17] = Quantitative High-Throughput drug screen in 47 multiple myeloma cell lines against the NCATS MIPE library collection: MM1S_ATCC cell viability assay (AID 1918980); also: potency is read from the fitted curve at half-maximal effect; nearly all actives have a fitted effect of over 45% in size
Outline: as §1

[18] = Quantitative High-Throughput drug screen in 47 multiple myeloma cell lines against the NCATS MIPE library collection: KMS34_JCRB cell viability assay (AID 1918985); settings: KMS34 myeloma viability, CellTiter-Glo ATP luminescence, 48 h; viability, percent of control: at 45.8 µM (top of the series)
Outline: as §1

[19] = Quantitative High-Throughput drug screen in 47 multiple myeloma cell lines against the NCATS MIPE library collection: PCM6_Riken cell viability assay (AID 1919870); settings: CellTiter-Glo ATP, 48 h; viability (% of control): at 45.8 µM (top of the series);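 also: 100% = DMSO-only wells and 0% = media-only wells; nearly all actives have a fitted effect of over 30% in size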
Outline: as §1

## CN1CCc2c(n(Cc3ccc(C(=O)NO)cc3)c3ccccc23)C1
[1]
  Potency: active: 16.6 µM
[2]
  Potency: active: 18.7 µM
[3]
  Potency: inconclusive: 8.33 µM [cytotoxic, full curve]
[4]
  Potency: inconclusive: 5.9 µM [cytotoxic, partial curve, poor fit]
[5]
  Potency: active: 4.18 µM
[6]
  Potency: active: 5.9 µM
[7]
  Potency: inconclusive: 16.6 µM [cytotoxic, partial curve]
[8]
  Potency: active: 13.2 µM

## C#Cc1cccc(Nc2ncnc3cc(OC)c(OCCCCCCC(=O)NO)cc23)c1
[1]
  Potency: active: 0.0935 µM
[2]
  Potency: active: 1.05 µM
[3]
  Potency: active: 0.743 µM
[6]
  Potency: active: 0.418 µM
[9]
  Potency: inconclusive: 0.418 µM [cytotoxic, full curve, poor fit]

## CC(=O)N1CCN(c2ccc(OCc3nn(C)c(C)c3-c3cccc4c(CCCOc5cccc6ccccc56)c(C(=O)O)n(Cc5cccnc5)c34)cc2)CC1
[3]
  Potency: inconclusive: 18.7 µM [cytotoxic, partial curve]
[10]
  Potency: active: 16.6 µM
[5]
  Potency: active: 0.001 µM
[11]
  Potency: active: 0.118 µM
[6]
  Potency: active: 20.9 µM
[9]
  Potency: active: 0.105 µM
[12]
  viability (% of DMSO control): inconclusive: 1.82% [cytotoxic]

## Cc1ccc(C(=O)Nc2cccc(C(F)(F)F)c2)cc1-c1ccc2nc(NCCN3CCOCC3)ncc2c1
[2]
  Potency: active: 18.7 µM
[3]
  Potency: active: 18.7 µM
[4]
  Potency: active: 1.05 µM
[13]
  Potency: active: 14.8 µM
[12]
  Potency: active: 5.9 µM

## CC[C@@H]1C(=O)N(C)c2cnc(Nc3ccc(C(=O)NC4CCN(C)CC4)cc3OC)nc2N1C1CCCC1
[5]
  Potency: inconclusive: 4.18 µM [cytotoxic, full curve, poor fit]
[6]
  Potency: active: 0.235 µM
[9]
  Potency: inconclusive: 5.26 µM [cytotoxic, partial curve, poor fit]
[12]
  Potency: inactive
[14]
  Potency: inconclusive: 9.35 µM [cytotoxic, partial curve, poor fit]

## COc1cc(C=CC(=O)CC(=O)C=Cc2ccc(O)c(OC)c2)ccc1O
[15]
  Potency: active: 7.62 µM
[3]
  Potency: active: 30.3 µM
[10]
  Potency: active: 17.1 µM
[16]
  Potency: active: 3.82 µM
[9]
  Potency: active: 10.8 µM
[8]
  Potency: active: 9.59 µM
[12]
  Potency: active: 21.5 µM

## CCOC(=O)[C@H](CCc1ccccc1)N[C@H]1CS[C@H](c2cccs2)CN(CC(=O)O)C1=O
[3]
  Potency: inconclusive: 23.5 µM [cytotoxic, partial curve, poor fit]
[4]
  Potency: active: 0.662 µM
[5]
  Potency: inconclusive: 5.26 µM [cytotoxic, full curve, poor fit]
[6]
  Potency: active: 14.8 µM
[7]
  Potency: active: 0.935 µM
[8]
  Potency: active: 0.296 µM
[12]
  Potency: active: 11.8 µM
[14]
  Potency: inconclusive: 1.66 µM [cytotoxic, full curve, poor fit]

## Cn1c(=O)c(-c2c(Cl)cccc2Cl)cc2cnc(Nc3cccc(C(=O)O)c3)nc21
[2]
  Potency: inconclusive: 0.743 µM [cytotoxic, full curve, poor fit]
[17]
  Potency: inconclusive: 0.0332 µM [rising, full curve, poor fit]
[3]
  Potency: inconclusive: 4.18 µM [cytotoxic, partial curve, poor fit]
[18]
  Potency: inconclusive: 8.33 µM [cytotoxic, partial curve, poor fit]
[5]
  Potency: inconclusive: 0.296 µM [rising, full curve, poor fit]
[6]
  Potency: active: 2.09 µM
[9]
  Potency: active: 0.187 µM

## CC(C(C)N1CC(=O)NC(=O)C1)N1CC(=O)NC(=O)C1 (stereo unspecified)
[3]
  Potency: inconclusive: 0.59 µM [cytotoxic, full curve, poor fit]
[18]
  Potency: inconclusive: 0.0118 µM [cytotoxic, full curve]
[5]
  Potency: inconclusive: 0.118 µM [cytotoxic, full curve, poor fit]
[16]
  Potency: inactive
[6]
  viability: inactive: 134%
[13]
  Potency: inactive
[9]
  Potency: inactive
[7]
  Potency: inactive
[8]
  Potency: inactive
[19]
  Potency: inactive

## C1CCC(C(CC2CCCCN2)C2CCCCC2)CC1 (stereo unspecified)
[4]
  Potency: active: 8.33 µM
[18]
  Potency: inconclusive: 33.2 µM [cytotoxic, single point]
[9]
  Potency: active: 20.9 µM
[12]
  Potency: active: 13.2 µM
